PubChem BioAssay AID2685 (National Center for Advancing Translational Sciences (NCATS), 2010)
The other results are listed elsewhere or left out. Further columns of the screen follow, without active or inactive calls. Most of these compounds were active or inconclusive in the main read-out, so they are no random draw. The note in brackets gives the kind of curve behind each potency; many fits are weak.

Assay: qHTS Assay for Lipid Storage Modulators in Drosophila S3 Cells;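 on cell number change: cells counted by Cell Tracker Red CMTPX staining in the red channel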
Settings: BODIPY lipid droplet fluorescence, 18-24 h; for cell number change: measured here: cell count max response, cells fed with added oleic acid
Outline: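 Drosophila S3 cells loaded with oleic acid (400 uM, as added) and compounds at several concentrations; lipid droplets imaged by 488-nm laser-scanning cytometry, 500–530 nm intensity and object ratio to cell channel. Percent activity normalized to 20 uM Triacsin C.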

[1] = measured here: cell number channel AC50, cells fed with added oleic acid
[2] = measured here: lipid fluorescence (Fed channel) AC50, cells fed with added oleic acid

SMILES	cell number change [%]	AC50 [1]	AC50 [2]
COc1ccccc1NC(=O)C1=C(C)Nc2nc(-c3ccc(N(C)C)cc3)nn2C1c1ccncc1 (stereo unspecified)	-17.3	0.731 µM [rising, full curve]	6.51 µM [rising, partial curve, poor fit]
O=C(CCn1c(=O)c2ccccc2n(CC(=O)NCCC2=CCCCC2)c1=O)NCc1ccco1		6.51 µM [rising, single point]	
CC(C)NC(=S)Nc1c(N)[nH]c(=O)[nH]c1=O	-32.4	23.1 µM [falling, single point]	32.6 µM [falling, single point]
CCOC(=O)N1CCN(C(=O)c2ccc3c(c2)sc2nc(-c4ccc(OC)cc4)cn23)CC1		4.11 µM [rising, partial curve]	
Cc1ncoc1C(=O)N1CCCC(N2CCN(c3ccccc3F)CC2)C1 (stereo unspecified)	1.65		0.58 µM [falling, single point]
CCC(=O)Nc1nc(N)n(-c2ccccc2)n1	-18.6	0.651 µM [falling, full curve, poor fit]	23.1 µM [falling, partial curve]
COc1ccccc1CC(=O)NC1CCC(C)CC1 (stereo unspecified)	1.47		
CN(C)S(=O)(=O)N1CCC(Oc2cccc(C(=O)N3CCSCC3)c2)CC1	11.8		0.00461 µM [rising, full curve, poor fit]
CCOc1ccc(C2C(C(=O)Nc3cc(C)on3)c3ccccc3C(=O)N2CCN2CCOCC2)cc1 (stereo unspecified)	1.19	6.51 µM [rising, single point]	6.51 µM [rising, single point]
O=C(COC(=O)Cc1ccc(Br)cc1)NCc1ccc2c(c1)OCO2	-28	0.517 µM [falling, full curve, poor fit]	
CCN(CC)S(=O)(=O)c1ccc(N=Cc2c(C)c(C#N)c(=O)n(C)c2O)cc1	81.7	18.4 µM [rising, single point]	8.2 µM [rising, partial curve]
CSCC[C@H](NC(=O)OC(C)(C)C)C(=O)N1CCC(C(=O)N[C@H](C(=O)O)C(C)C)CC1	-13.4	4.11 µM [falling, single point]	0.00517 µM [falling, full curve]
Nc1nonc1-n1nnc(C(=O)N/N=C/c2cccc(F)c2)c1-c1ccccc1	-10.5		
CC(C)COc1ccc(C(=O)Nc2sc3c(c2C(=O)O)CC(C)(C)OC3)cc1	-23	8.2 µM [falling, partial curve, poor fit]	
COc1ccc(N2CC(C)Cn3c2nc2c3c(=O)n(CCN3CCOCC3)c(=O)n2C)cc1 (stereo unspecified)			29.1 µM [falling, single point]
CCOC(=O)c1cnn(-c2nc3c(C)cccc3s2)c1C(F)(F)F	-20.6		6.51 µM [rising, single point]
O=C(OCC(=O)N1CCCCCC1)c1ccc(Cl)c(S(=O)(=O)N2CCCC2)c1	8.12	2.06 µM [rising, partial curve, poor fit]	0.731 µM [rising, full curve, poor fit]
CC(C)C(=O)NC(=S)Nc1ccc(S(=O)(=O)Nc2nccs2)cc1	11.2		0.0259 µM [rising, full curve, poor fit]
CCCc1cc(=O)[nH]c(SCC(=O)N2CCC(C)CC2)n1			6.51 µM [falling, single point]

In a second layout: entries from further up
SMILES | cell number change [%] | AC50 [1] | AC50 [2]
CCOc1ccc(C2C(C(=O)Nc3cc(C)on3)c3ccccc3C(=O)N2CCN2CCOCC2)cc1 (stereo unspecified) | 1.19 | 6.51 µM [rising, single point] | 6.51 µM [rising, single point]
O=C(COC(=O)Cc1ccc(Br)cc1)NCc1ccc2c(c1)OCO2 | -28 | 0.517 µM [falling, full curve, poor fit] | 

Following part.

SMILES	cell number change [%]	AC50 [1]	AC50 [2]
CCOCCCNC(=O)Cc1ccc(OC)c(OC)c1	-23.1		
CSCCC(NC(=O)c1ccc(Cl)cc1)C(=O)OCC(=O)NCc1ccco1 (stereo unspecified)	55.5	11.6 µM [rising, partial curve, poor fit]	
Cc1nc(Nc2ccc(S(N)(=O)=O)cc2)oc1C	-8.06		
COc1cc(CN2CCC(n3nccc3NC(=O)c3ccc4c(c3)OCO4)CC2)ccc1O	-15.3	1.84 µM [rising, partial curve]	
Cc1cccc(C)c1NC(=O)CN(C)C(=O)Cn1c(=O)cnc2ccccc21	25.4	0.708 µM [rising, full curve, poor fit]	0.562 µM [rising, full curve, poor fit]
O=C(NCC1COc2ccccc2O1)c1ccc(F)c(S(=O)(=O)N2CCOCC2)c1 (stereo unspecified)	0.402		
O=C(OCC(=O)N1CCCC1)c1cc(F)c(F)cc1Cl	20.3		0.651 µM [rising, full curve, poor fit]
COc1cccc(C(=O)NCCC2=CCCCC2)c1			6.51 µM [falling, single point]
Cc1ccc2[nH]c(=S)cc(C)c2c1	13.7		0.58 µM [rising, full curve, poor fit]
CC(=O)C1=C(c2ccccc2)NC(=S)NC1c1cc(Cl)c(OC(C)C)c(Cl)c1 (stereo unspecified)	-18.1		
Cc1nn(Cc2ccccc2Cl)c(C)c1NC(=O)Cn1nc([N+](=O)[O-])c(Cl)c1C		0.00461 µM [rising, full curve, poor fit]	0.58 µM [rising, partial curve]
O=C(Nc1ccc(F)cc1)c1cc(S(=O)(=O)Nc2ccc(F)cc2)cs1	-44.3		
COc1ccccc1C1CC(c2ccccc2)=NN1S(=O)(=O)c1ccccc1 (stereo unspecified)	6.3	2.06 µM [rising, partial curve]	
Cc1cc(-c2nnc(SCC(=O)NC3CCCC3)o2)no1	29.8		10.3 µM [rising, partial curve]
Cc1cc(C)n2c(SCC(=O)Nc3ncc(C(F)(F)F)cc3Cl)nnc2n1	-8.79		7.31 µM [rising, single point]
CCN(C(=O)CSc1nccn1C)c1cccc2ccccc12	21.6		0.231 µM [rising, full curve, poor fit]
COCCn1c(-c2ccc(OC(F)(F)C(F)C(F)(F)F)cc2)nc2c1c(=O)[nH]c(=O)n2CC(C)C (stereo unspecified)	-41.4	16.4 µM [falling, partial curve]	14.6 µM [falling, partial curve]
Cc1ccc(CSc2nnc(-c3ccco3)o2)cc1	35.3	29.1 µM [rising, single point]	
